Data published in the supplement of paper PMC12819154, “High-throughput peptide-centric local stability assay extends protein–ligand identification to membrane proteins, tissues and bacteria” (Nature Structural & Molecular Biology, 2025).
The list shows a part of the results. Most entries show no effect beyond the scatter of the controls.

Chains of the proteins cited; added tags and fusions are not shown. Lines headed by an entry give the natural chain unless they say otherwise; changes in a name come on top.
UniProt P58735: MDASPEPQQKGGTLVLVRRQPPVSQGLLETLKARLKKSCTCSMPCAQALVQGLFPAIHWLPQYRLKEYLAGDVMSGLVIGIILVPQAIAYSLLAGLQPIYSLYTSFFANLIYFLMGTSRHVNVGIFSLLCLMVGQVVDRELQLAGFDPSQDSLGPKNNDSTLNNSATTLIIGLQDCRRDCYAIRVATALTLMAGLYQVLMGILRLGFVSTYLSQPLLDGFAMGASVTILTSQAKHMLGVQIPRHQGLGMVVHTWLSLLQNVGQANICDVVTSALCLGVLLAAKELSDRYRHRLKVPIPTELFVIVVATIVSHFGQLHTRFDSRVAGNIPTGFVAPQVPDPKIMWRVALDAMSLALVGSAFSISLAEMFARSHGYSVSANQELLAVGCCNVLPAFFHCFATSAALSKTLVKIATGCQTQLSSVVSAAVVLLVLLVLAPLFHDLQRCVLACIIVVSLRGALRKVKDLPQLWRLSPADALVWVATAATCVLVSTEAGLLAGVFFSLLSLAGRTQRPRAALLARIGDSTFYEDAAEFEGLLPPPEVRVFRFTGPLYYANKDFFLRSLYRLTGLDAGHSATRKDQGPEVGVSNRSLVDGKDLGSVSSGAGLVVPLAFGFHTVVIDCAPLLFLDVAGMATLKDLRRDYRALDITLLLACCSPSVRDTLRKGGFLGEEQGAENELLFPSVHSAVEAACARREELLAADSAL
UniProt P70697: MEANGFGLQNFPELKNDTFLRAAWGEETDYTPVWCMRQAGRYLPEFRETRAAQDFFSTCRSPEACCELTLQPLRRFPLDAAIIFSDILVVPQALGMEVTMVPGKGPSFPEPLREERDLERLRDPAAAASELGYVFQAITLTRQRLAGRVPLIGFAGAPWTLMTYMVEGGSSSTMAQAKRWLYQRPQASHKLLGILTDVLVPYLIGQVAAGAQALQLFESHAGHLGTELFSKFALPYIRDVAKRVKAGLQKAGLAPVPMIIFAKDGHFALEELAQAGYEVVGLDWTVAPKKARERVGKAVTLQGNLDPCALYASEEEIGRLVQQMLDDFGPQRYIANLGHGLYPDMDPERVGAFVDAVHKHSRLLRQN
UniProt P61750: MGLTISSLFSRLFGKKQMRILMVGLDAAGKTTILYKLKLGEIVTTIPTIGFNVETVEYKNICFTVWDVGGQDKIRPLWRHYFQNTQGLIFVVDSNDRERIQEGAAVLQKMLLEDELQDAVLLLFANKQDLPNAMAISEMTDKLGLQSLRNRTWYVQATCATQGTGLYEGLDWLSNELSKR
UniProt P97493: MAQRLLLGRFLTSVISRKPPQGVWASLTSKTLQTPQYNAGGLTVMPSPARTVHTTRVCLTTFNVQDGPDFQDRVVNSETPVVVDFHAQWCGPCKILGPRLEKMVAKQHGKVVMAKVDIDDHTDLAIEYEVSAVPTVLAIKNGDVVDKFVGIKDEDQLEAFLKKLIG
UniProt P97434: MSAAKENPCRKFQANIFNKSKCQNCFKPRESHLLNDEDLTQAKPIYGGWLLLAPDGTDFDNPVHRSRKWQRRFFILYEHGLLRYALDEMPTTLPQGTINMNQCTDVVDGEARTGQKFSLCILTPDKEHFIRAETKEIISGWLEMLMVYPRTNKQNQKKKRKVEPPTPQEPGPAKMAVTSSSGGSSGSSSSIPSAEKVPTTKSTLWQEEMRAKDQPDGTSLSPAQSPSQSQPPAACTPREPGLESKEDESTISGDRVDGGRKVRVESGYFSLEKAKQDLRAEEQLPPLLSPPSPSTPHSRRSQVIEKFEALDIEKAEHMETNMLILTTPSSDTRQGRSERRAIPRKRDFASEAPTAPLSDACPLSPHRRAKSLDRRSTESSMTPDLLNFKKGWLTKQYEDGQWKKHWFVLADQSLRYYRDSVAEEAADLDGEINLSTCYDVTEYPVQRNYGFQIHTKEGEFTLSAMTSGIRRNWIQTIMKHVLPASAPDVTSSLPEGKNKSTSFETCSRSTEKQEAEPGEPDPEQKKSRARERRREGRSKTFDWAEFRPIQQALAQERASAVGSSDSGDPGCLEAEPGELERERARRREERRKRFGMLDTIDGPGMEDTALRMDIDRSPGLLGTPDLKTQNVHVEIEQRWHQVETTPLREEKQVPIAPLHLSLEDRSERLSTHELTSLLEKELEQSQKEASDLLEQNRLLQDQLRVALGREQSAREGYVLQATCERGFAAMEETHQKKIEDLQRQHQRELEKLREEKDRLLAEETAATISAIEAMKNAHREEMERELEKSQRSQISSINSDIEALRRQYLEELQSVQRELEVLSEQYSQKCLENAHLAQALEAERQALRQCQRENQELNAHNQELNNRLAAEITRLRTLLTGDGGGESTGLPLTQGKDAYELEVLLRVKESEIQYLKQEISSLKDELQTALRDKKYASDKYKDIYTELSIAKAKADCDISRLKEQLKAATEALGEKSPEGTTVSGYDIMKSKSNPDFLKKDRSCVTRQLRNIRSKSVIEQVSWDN
UniProt P63028: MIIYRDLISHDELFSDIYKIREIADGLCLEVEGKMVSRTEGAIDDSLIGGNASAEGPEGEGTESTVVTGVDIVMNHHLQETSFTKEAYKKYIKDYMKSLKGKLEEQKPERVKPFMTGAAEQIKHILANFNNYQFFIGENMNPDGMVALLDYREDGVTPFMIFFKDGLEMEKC
UniProt P70429, whole entry: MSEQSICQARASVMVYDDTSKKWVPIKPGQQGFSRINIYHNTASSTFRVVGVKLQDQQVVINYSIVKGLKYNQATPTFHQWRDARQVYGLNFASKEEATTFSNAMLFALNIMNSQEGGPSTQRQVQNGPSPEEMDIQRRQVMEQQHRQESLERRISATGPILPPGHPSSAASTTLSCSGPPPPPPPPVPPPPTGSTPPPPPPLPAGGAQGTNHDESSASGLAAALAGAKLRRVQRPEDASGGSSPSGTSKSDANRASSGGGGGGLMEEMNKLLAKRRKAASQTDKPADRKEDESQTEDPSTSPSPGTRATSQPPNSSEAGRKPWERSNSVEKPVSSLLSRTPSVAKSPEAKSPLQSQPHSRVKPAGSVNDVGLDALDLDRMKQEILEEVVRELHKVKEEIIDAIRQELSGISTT
UniProt P58710: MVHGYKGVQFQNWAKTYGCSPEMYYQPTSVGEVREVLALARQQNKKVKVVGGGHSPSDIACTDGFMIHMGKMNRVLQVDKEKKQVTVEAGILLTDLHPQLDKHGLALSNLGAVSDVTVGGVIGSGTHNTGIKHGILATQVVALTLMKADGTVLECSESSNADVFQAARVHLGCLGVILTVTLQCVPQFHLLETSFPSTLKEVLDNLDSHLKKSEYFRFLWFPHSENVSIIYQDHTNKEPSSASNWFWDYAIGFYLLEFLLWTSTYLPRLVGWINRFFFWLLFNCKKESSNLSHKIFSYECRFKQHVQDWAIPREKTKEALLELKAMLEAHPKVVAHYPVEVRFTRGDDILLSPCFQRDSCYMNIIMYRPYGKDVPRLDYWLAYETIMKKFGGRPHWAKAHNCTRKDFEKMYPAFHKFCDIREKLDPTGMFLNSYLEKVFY
UniProt P85094: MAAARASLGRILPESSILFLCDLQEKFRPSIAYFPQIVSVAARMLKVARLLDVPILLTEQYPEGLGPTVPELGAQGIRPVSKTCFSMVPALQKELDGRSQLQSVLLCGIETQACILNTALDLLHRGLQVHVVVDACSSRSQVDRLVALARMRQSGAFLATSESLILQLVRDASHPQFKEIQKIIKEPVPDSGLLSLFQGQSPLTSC
UniProt P56959: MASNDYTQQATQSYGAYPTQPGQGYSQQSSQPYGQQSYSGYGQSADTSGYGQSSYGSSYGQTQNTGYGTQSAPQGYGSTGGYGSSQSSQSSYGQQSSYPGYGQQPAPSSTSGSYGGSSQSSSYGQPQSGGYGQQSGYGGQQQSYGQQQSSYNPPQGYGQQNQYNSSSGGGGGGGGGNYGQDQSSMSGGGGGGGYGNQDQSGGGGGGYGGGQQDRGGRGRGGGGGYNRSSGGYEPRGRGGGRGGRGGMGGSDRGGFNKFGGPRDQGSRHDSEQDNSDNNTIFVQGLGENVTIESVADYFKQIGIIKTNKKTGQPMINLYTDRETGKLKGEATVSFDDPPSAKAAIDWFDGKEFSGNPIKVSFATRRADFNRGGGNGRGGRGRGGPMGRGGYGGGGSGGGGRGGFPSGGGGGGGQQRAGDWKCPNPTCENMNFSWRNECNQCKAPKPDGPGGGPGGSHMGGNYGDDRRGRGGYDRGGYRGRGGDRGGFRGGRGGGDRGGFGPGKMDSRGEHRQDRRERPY
UniProt P70168, whole entry: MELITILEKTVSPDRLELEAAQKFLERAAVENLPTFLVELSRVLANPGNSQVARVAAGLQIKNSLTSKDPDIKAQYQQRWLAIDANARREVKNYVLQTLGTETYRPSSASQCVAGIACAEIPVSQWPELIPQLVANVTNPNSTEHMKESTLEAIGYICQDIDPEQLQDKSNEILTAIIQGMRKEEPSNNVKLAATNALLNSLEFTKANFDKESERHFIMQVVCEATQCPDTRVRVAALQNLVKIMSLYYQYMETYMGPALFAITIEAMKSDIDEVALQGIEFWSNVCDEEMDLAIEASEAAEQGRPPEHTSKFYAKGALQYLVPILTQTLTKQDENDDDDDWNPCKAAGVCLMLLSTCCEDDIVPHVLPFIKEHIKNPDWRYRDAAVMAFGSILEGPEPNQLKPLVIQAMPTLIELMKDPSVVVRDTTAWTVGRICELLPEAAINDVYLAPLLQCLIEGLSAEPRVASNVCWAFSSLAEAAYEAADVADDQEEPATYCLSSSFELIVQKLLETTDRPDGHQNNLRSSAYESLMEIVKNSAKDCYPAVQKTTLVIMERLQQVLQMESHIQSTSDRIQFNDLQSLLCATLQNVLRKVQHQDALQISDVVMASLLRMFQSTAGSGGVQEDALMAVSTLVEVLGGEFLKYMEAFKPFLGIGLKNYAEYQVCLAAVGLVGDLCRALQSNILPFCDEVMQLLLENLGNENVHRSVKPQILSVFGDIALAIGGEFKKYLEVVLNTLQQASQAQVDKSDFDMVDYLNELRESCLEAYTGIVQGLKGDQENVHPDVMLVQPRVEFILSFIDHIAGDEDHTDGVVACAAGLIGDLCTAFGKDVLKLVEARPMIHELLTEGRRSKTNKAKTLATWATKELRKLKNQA
UniProt P70288, whole entry: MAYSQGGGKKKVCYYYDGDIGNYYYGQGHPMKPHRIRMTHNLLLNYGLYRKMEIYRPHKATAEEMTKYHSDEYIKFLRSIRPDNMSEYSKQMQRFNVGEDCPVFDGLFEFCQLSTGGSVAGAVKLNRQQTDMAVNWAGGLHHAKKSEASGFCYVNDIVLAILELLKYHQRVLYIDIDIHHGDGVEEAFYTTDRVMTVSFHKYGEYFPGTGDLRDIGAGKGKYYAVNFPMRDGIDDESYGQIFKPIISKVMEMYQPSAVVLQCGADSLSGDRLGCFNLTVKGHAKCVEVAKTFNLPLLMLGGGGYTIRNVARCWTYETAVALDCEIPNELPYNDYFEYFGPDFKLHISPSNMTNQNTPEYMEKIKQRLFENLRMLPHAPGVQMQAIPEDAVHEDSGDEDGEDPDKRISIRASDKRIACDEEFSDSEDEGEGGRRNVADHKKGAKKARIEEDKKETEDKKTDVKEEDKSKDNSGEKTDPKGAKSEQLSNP
UniProt P70677: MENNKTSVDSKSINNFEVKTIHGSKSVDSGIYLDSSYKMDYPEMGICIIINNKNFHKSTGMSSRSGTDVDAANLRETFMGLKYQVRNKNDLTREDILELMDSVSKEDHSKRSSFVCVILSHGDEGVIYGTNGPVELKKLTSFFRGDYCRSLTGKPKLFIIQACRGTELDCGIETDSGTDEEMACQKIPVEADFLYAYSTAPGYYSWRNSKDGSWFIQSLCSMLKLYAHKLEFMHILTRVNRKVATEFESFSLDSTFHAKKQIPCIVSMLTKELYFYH
UniProt P62077: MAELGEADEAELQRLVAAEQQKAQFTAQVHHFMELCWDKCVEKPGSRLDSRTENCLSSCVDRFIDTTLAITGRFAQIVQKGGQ
UniProt P97315: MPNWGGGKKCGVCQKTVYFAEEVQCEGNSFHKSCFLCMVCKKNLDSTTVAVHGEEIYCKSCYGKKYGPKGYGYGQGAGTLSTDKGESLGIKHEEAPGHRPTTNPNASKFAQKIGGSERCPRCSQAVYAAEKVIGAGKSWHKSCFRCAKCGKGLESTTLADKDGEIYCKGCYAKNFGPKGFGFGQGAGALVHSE
UniProt P70404: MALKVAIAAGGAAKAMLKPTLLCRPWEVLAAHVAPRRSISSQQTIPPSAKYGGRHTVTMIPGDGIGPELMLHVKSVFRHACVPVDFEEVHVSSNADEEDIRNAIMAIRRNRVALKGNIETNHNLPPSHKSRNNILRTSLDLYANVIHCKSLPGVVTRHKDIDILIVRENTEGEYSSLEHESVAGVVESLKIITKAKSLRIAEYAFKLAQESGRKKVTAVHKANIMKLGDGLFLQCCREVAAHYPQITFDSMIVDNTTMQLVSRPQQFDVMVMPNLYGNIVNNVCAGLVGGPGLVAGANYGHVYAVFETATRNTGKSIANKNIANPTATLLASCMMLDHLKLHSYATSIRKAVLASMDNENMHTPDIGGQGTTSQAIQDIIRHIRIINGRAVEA

These targets were tested with CN[C@@H]1C[C@H]2O[C@@](C)([C@@H]1OC)n1c3ccccc3c3c4c(c5c6ccccc6n2c5c31)C(=O)NC4 [staurosporine] (assay: log2 fold change of pooled soluble protein (PISA), ligand vs vehicle (log2 ratio); higher = more thermally stabilized). Settings: ligand concentration: 20 uM; assay format: PISA pool 52.9/55.5/58.6 C.

Row | Target | log2 fold change of pooled soluble protein
1 | UniProt P58735 | -0.0913
2 | UniProt P70697 | -0.264
3 | UniProt P57780 | 0.124
4 | UniProt P67778 | -0.0622
5 | UniProt P61750 | -0.0366
6 | UniProt P70452 | -0.134
7 | UniProt P81117 | -0.123
8 | UniProt P70303 | 0.0619
9 | UniProt P97493 | 0.504
10 | UniProt P97434 | -0.176
11 | UniProt P97287 | 0.414
12 | UniProt P59759 | 0.0707
13 | UniProt P60122 | -0.101
14 | UniProt P63037 | 0.113
15 | UniProt P97449 | 0.0659
16 | UniProt P59481 | -0.256
17 | UniProt P63028 | -0.176
18 | UniProt P57716 | 0.103
19 | UniProt P58058 | -0.053

Row | Target | log2 fold change of pooled soluble protein
20 | UniProt P70429 | -0.0126
21 | UniProt P58710 | -0.179
22 | UniProt P85094 | 0.0344
23 | UniProt P56959 | -0.071
24 | UniProt P70297 | -0.0577
25 | P86048;Q6ZWV3 | 0.0921
26 | UniProt P62862 | 0.0949
27 | UniProt P70168 | 0.0896
28 | UniProt P70691 | 0.269
29 | UniProt P70288 | 0.0845
30 | UniProt P58269 | -0.149
31 | UniProt P70677 | -0.112
32 | UniProt P62077 | 0.0938
33 | UniProt P58389 | -0.522
34 | UniProt P81269 | -0.115
35 | UniProt P97333 | -0.262
36 | UniProt P97315 | 0.102
37 | UniProt P70404 | -0.176

Reprinted: entries 26 to 27
Row | Target | log2 fold change of pooled soluble protein
26 | UniProt P62862 | 0.0949
27 | UniProt P70168 | 0.0896
